A short description of the data set: Donnability of latex examination gloves dusted with test material, compared to talc. The settings on record: latex examination glove, 6 mg. of test material dusted into the glove; rating 0 to 10 with 10 being the best.

Results on 2 molecules are retold here after US6684405B2, “Surgical and examination gloves” (priority 2001, dated 2004).

On to `O=C(O)c1cc(=O)c2c(OCC(O)COc3cccc4oc(C(=O)O)cc(=O)c34)cccc2o1` [Sodium Cromolyn], for which the “Rating (donnability)” value was 7.
The result for Alpha 1-antitrypsin reads 7.
